Results as given in paper doi:10.1101/2024.04.17.589660.
No constants are given. Whether binding was seen depends on the method and setting. A result given as binding can be weak or reduced; the word gives no strength. Where a sequence is shown, tags or fusion partners need not be part of it.

Target: BatR (PA3049), bacterial two-hybrid fusion (P. aeruginosa PAO1)
Test: two-hybrid

B1: Glycerol phosphate kinase (GlpK, PA3582), bacterial two-hybrid fusion (enzyme, UniProt Q51390 1-505)
chain: MTDKHNKKYVVALDQGTTSSRAIVFDRDANVVSQAQREFAQFYPQAGWVEHDPMEIWATQSSTLVEALAQASIEHDQVAAIGITNQRETTVVWDRHSGRPIHNAIVWQCRRSAAICAQLKRDGLEDYIRETTGLVTDPYFSGTKLKWILDNVEGARERARNGDLLFGTIDTWLIWKLTEGKVHVTDYTNASRTMLFNIHSRDWDARMLEVLDIPRSMLPEVRNSSEVYGNARIGGVGGGELPIAGIAGDQQAALFGQMCVEPGQAKNTYGTGCFLLMHTGDKAVKSTHGLLTTIACGPRGEVGYALEGAVFNGGSTVQWLRDELKVINDSFDSEYFATKVKDSNGVYLVPAFTGLGAPYWDPYARGAVFGLTRGVKADHLIRATLESIAYQTRDVLDAMQRDAGERLRALRVDGGAVANNFLMQFQADILGTRVERPVMRETTALGAAYLAGLACGFWSSLDELKSKAVIERVFEPECDEPRREKLYAGWKKAVERTRGWDDGEL
B1 was tested, and the binding was “binds”.
